{"source": "PubChem BioAssay AID1259314, Drosophila RNAi Screening Center | 2017", "screen": "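Modifiers of manganese chloride toxicity in fly cells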 (primary screen)", "system": "Drosophila S2R+ cells", "reagents": "long dsRNA against Drosophila genes", "duration": "5 days (4 days knock-down, then 1 day metal exposure)", "challenge": "manganese chloride added to 15 mM for 24 hours", "read-out": "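Luciferase ATP signal used as a proxy for viable cell number, reported as one averaged z-score per dsRNA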", "reading the numbers": "mean ATP z-score: higher = more ATP than the plate average, more viable cells under manganese", "call rule": "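a mean ATP z-score past 1.5 in either direction is called active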", "calls": "active = strong ATP change, up or down; inactive = no strong ATP change", "note": "The deposit covers about 3,100 reagents; below is a random part of them. Of all reagents, 289 (9.3%) got an active call. 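Active includes both higher and lower ATP than plate average; check the z-score sign for direction.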 Not given: the amount of reagent."}
{"gene knocked down":"iav (inactive)","dsRNA":"DRSC25119","mean ATP z-score":0.521,"Call":"inactive"}
{"gene knocked down":"iav (inactive)","dsRNA":"DRSC39553","mean ATP z-score":0.507,"Call":"inactive"}
{"gene knocked down":"CG1317","dsRNA":"DRSC08305","mean ATP z-score":-0.717,"Call":"inactive"}
{"gene knocked down":"CG1317","dsRNA":"DRSC39565","mean ATP z-score":-0.506,"Call":"inactive"}
{"gene knocked down":"Tomosyn","dsRNA":"DRSC19842","mean ATP z-score":0.2,"Call":"inactive"}
{"gene knocked down":"Tomosyn","dsRNA":"DRSC25047","mean ATP z-score":1.18,"Call":"inactive"}
{"gene knocked down":"CG14234","dsRNA":"DRSC19317","mean ATP z-score":-0.0795,"Call":"inactive"}
{"gene knocked down":"CG14234","dsRNA":"DRSC19589","mean ATP z-score":0.211,"Call":"inactive"}
{"gene knocked down":"Tim23 (Translocase of inner mitochondrial membrane 23)","dsRNA":"DRSC21240","mean ATP z-score":-2.68,"Call":"active"}
{"gene knocked down":"tkv (thickveins)","dsRNA":"DRSC03623","mean ATP z-score":-0.116,"Call":"inactive"}
{"gene knocked down":"tkv (thickveins)","dsRNA":"DRSC22606","mean ATP z-score":-0.471,"Call":"inactive"}
{"gene knocked down":"tkv (thickveins)","dsRNA":"DRSC25957","mean ATP z-score":-0.0722,"Call":"inactive"}
{"gene knocked down":"Rh7 (Rhodopsin 7)","dsRNA":"DRSC10529","mean ATP z-score":-1.81,"Call":"active"}
{"gene knocked down":"Rh7 (Rhodopsin 7)","dsRNA":"DRSC28331","mean ATP z-score":-2.38,"Call":"active"}
{"gene knocked down":"sbm (sobremesa)","dsRNA":"DRSC20185","mean ATP z-score":-0.495,"Call":"inactive"}
{"gene knocked down":"Grl36a (Gustatory receptor-like 36a)","dsRNA":"DRSC21748","mean ATP z-score":0.458,"Call":"inactive"}
{"gene knocked down":"Mrp4 (Multidrug resistance protein 4)","dsRNA":"DRSC14931","mean ATP z-score":0.18,"Call":"inactive"}
{"gene knocked down":"Mrp4 (Multidrug resistance protein 4)","dsRNA":"DRSC28151","mean ATP z-score":-0.335,"Call":"inactive"}
{"gene knocked down":"Scgalpha (Sarcoglycan alpha)","dsRNA":"DRSC03076","mean ATP z-score":-0.732,"Call":"inactive"}
{"gene knocked down":"Scgalpha (Sarcoglycan alpha)","dsRNA":"DRSC29625","mean ATP z-score":0.0897,"Call":"inactive"}

Sorted by “mean ATP z-score” (high to low): some entries from above
{"gene knocked down":"iav (inactive)","dsRNA":"DRSC25119","mean ATP z-score":0.521,"Call":"inactive"}
{"gene knocked down":"iav (inactive)","dsRNA":"DRSC39553","mean ATP z-score":0.507,"Call":"inactive"}
